These are yes or no findings as the source states them, for the method shown. Binding seen in cells or lysates may run through a third protein. Here binding means that the protein was enriched with, or labelled near, the bait; the list need not be complete. Sequences can lack the tags named with a protein.
Target: T1, DENR-3×FLAG-NeonGreen-dTAG (endogenously tagged DENR) (mouse (endogenous in NIH/3T3)) (UniProt Q9CQJ6)
T1 sequence: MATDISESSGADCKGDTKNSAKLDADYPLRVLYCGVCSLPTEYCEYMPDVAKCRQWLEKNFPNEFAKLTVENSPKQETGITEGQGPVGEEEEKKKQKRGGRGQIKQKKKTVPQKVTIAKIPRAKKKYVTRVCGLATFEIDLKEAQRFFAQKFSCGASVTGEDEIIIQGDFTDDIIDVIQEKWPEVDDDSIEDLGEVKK
Experiment: affinity purification with mass spectrometry; FLAG-IP on anti-FLAG magnetic beads from extracts of NIH/3T3 DENR-3×FLAG-NeonGreen-dTAG cells, control-treated vs. treated with 500 nM dTAG-13 for 5 h; IP buffer 50 mM Tris-HCl pH 7.5, 120 mM NaCl, 1% NP-40, 10 mM MgCl2; 4 °C, 3 h; triplicates

B1: MCTS2 (protein, UniProt Q9CQ21 1-181)
chain: MFKKFDEKESVSNCIQLKTSVIKGIKSQLTEQFPGIEPWLNQIMPKKDPVKIVRCHEHMEILTVNGELLFFRQRKGPFYPTLRLLHKYPFILPHQQVDKGAIKFVLSGANIMCPGLTSPGAKLYTAAVDTIVAVMAEGKEHALCVGVMKMAAADIEKINKGIGIENIHYLNDGLWHMKTYK
For B1, the binding was “binds”.
